We go through three molecules from PMC3834312.

The chains behind the UniProt entries cited, without tags or fusion partners.
UniProt Q9UH99: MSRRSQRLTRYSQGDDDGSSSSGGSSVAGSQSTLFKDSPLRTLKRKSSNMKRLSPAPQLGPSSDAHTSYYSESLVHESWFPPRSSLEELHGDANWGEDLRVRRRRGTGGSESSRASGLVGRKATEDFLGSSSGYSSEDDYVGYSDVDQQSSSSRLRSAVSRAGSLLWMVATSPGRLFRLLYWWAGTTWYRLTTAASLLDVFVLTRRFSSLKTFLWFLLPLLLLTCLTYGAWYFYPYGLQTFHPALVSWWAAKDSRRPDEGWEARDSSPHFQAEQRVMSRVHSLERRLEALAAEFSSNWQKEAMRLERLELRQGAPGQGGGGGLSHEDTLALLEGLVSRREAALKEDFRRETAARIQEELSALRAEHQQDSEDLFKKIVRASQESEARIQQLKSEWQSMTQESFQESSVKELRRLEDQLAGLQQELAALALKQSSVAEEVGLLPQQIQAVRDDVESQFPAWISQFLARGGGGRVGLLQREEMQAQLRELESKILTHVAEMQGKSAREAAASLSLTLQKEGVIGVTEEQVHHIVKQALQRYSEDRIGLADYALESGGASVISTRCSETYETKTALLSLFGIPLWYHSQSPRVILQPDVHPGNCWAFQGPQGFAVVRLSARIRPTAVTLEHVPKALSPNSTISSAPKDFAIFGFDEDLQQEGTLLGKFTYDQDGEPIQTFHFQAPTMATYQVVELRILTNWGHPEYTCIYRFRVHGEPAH

In experiment [1] the target is SUN2 BiFC fusion carrying the Venus-tag on the nucleoplasmic N-terminus (UniProt Q9UH99). Nature of the experiment: split reporter; Venus BiFC (amino acids 1-157 and 158-238) in transfected HeLa cells, 1 hr at 30°C before fixation, confocal microscopy.
The target of experiment [2] is SUN2 (yeast two hybrid, data not shown) (UniProt Q9UH99). Kind of experiment: two-hybrid; yeast two hybrid analysis, data not shown.

Results are given in words; binding and its absence hold for the method and conditions named. For part of these data: Binding seen in cells or lysates may run through a third protein. Some entries that bind do so weakly or less than the wild type. For part of these data: Tags and fused reporters may be left off the sequences shown.

B1: SIPA1 BiFC fusion (Venus fragment) (protein, UniProt Q96FS4 1-1042)
chain: MPMWAGGVGSPRRGMAPASTDDLFARKLRQPARPPLTPHTFEPRPVRGPLLRSGSDAGEARPPTPASPRARAHSHEEASRPAATSTRLFTDPLALLGLPAEEPEPAFPPVLEPRWFAHYDVQSLLFDWAPRSQGMGSHSEASSGTLASAEDQAASSDLLHGAPGFVCELGGEGELGLGGPASPPVPPALPNAAVSILEEPQNRTSAYSLEHADLGAGYYRKYFYGKEHQNFFGMDESLGPVAVSLRREEKEGSGGGTLHSYRVIVRTTQLRTLRGTISEDALPPGPPRGLSPRKLLEHVAPQLSPSCLRLGSASPKVPRTLLTLDEQVLSFQRKVGILYCRAGQGSEEEMYNNQEAGPAFMQFLTLLGDVVRLKGFESYRAQLDTKTDSTGTHSLYTTYQDHEIMFHVSTMLPYTPNNQQQLLRKRHIGNDIVTIVFQEPGSKPFCPTTIRSHFQHVFLVVRAHTPCTPHTTYRVAVSRTQDTPAFGPALPAGGGPFAANADFRAFLLAKALNGEQAAGHARQFHAMATRTRQQYLQDLATNEVTTTSLDSASRFGLPSLGGRRRAAPRGPGAELQAAGSLVWGVRAAPGARVAAGAQASGPEGIEVPCLLGISAEALVLVAPRDGRVVFNCACRDVLAWTFSEQQLDLYHGRGEAITLRFDGSPGQAVGEVVARLQLVSRGCETRELALPRDGQGRLGFEVDAEGFVTHVERFTFAETAGLRPGARLLRVCGQTLPSLRPEAAAQLLRSAPKVCVTVLPPDESGRPRRSFSELYTLSLQEPSRRGAPDPVQDEVQGVTLLPTTKQLLHLCLQDGGSPPGPGDLAEERTEFLHSQNSLSPRSSLSDEAPVLPNTTPDLLLATTAKPSVPSADSETPLTQDRPGSPSGSEDKGNPAPELRASFLPRTLSLRNSISRIMSEAGSGTLEDEWQAISEIASTCNTILESLSREGQPIPESGDPKGTPKSDAEPEPGNLSEKVSHLESMLRKLQEDLQKEKADRAALEEEVRSLRHNNRRLQAESESAATRLLLASKQLGSPTADLA
Take B1: the binding entry in experiment [1] is given as “binds”.

B2: SIPA1 (yeast two hybrid, data not shown) (protein, UniProt Q96FS4 1-1042)
chain: MPMWAGGVGSPRRGMAPASTDDLFARKLRQPARPPLTPHTFEPRPVRGPLLRSGSDAGEARPPTPASPRARAHSHEEASRPAATSTRLFTDPLALLGLPAEEPEPAFPPVLEPRWFAHYDVQSLLFDWAPRSQGMGSHSEASSGTLASAEDQAASSDLLHGAPGFVCELGGEGELGLGGPASPPVPPALPNAAVSILEEPQNRTSAYSLEHADLGAGYYRKYFYGKEHQNFFGMDESLGPVAVSLRREEKEGSGGGTLHSYRVIVRTTQLRTLRGTISEDALPPGPPRGLSPRKLLEHVAPQLSPSCLRLGSASPKVPRTLLTLDEQVLSFQRKVGILYCRAGQGSEEEMYNNQEAGPAFMQFLTLLGDVVRLKGFESYRAQLDTKTDSTGTHSLYTTYQDHEIMFHVSTMLPYTPNNQQQLLRKRHIGNDIVTIVFQEPGSKPFCPTTIRSHFQHVFLVVRAHTPCTPHTTYRVAVSRTQDTPAFGPALPAGGGPFAANADFRAFLLAKALNGEQAAGHARQFHAMATRTRQQYLQDLATNEVTTTSLDSASRFGLPSLGGRRRAAPRGPGAELQAAGSLVWGVRAAPGARVAAGAQASGPEGIEVPCLLGISAEALVLVAPRDGRVVFNCACRDVLAWTFSEQQLDLYHGRGEAITLRFDGSPGQAVGEVVARLQLVSRGCETRELALPRDGQGRLGFEVDAEGFVTHVERFTFAETAGLRPGARLLRVCGQTLPSLRPEAAAQLLRSAPKVCVTVLPPDESGRPRRSFSELYTLSLQEPSRRGAPDPVQDEVQGVTLLPTTKQLLHLCLQDGGSPPGPGDLAEERTEFLHSQNSLSPRSSLSDEAPVLPNTTPDLLLATTAKPSVPSADSETPLTQDRPGSPSGSEDKGNPAPELRASFLPRTLSLRNSISRIMSEAGSGTLEDEWQAISEIASTCNTILESLSREGQPIPESGDPKGTPKSDAEPEPGNLSEKVSHLESMLRKLQEDLQKEKADRAALEEEVRSLRHNNRRLQAESESAATRLLLASKQLGSPTADLA
As for B2, the binding result in experiment [2] is “binds”.

B3: RRP1B BiFC fusion (Venus fragment) (protein, UniProt Q14684 1-758)
chain: MAPAMQPAEIQFAQRLASSEKGIRDRAVKKLRQYISVKTQRETGGFSQEELLKIWKGLFYCMWVQDEPLLQEELANTIAQLVHAVNNSAAQHLFIQTFWQTMNREWKGIDRLRLDKYYMLIRLVLRQSFEVLKRNGWEESRIKVFLDVLMKEVLCPESQSPNGVRFHFIDIYLDELSKVGGKELLADQNLKFIDPFCKIAAKTKDHTLVQTIARGVFEAIVDQSPFVPEETMEEQKTKVGDGDLSAEEIPENEVSLRRAVSKKKTALGKNHSRKDGLSDERGRDDCGTFEDTGPLLQFDYKAVADRLLEMTSRKNTPHFNRKRLSKLIKKFQDLSEGSSISQLSFAEDISADEDDQILSQGKHKKKGNKLLEKTNLEKEKGSRVFCVEEEDSESSLQKRRRKKKKKHHLQPENPGPGGAAPSLEQNRGREPEASGLKALKARVAEPGAEATSSTGEESGSEHPPAVPMHNKRKRPRKKSPRAHREMLESAVLPPEDMSQSGPSGSHPQGPRGSPTGGAQLLKRKRKLGVVPVNGSGLSTPAWPPLQQEGPPTGPAEGANSHTTLPQRRRLQKKKAGPGSLELCGLPSQKTASLKKRKKMRVMSNLVEHNGVLESEAGQPQALGSSGTCSSLKKQKLRAESDFVKFDTPFLPKPLFFRRAKSSTATHPPGPAVQLNKTPSSSKKVTFGLNRNMTAEFKKTDKSILVSPTGPSRVAFDPEQKPLHGVLKTPTSSPASSPLVAKKPLTTTPRRRPRAMDFF
Take B3: in experiment [1], the binding result is recorded as “binds”.
